Data: article PMC4881399

Amino acid sequences for entries named in this document (tags omitted). A change or cut given only in a name is not applied to a line headed by its entry.
UniProt Q8ILY9: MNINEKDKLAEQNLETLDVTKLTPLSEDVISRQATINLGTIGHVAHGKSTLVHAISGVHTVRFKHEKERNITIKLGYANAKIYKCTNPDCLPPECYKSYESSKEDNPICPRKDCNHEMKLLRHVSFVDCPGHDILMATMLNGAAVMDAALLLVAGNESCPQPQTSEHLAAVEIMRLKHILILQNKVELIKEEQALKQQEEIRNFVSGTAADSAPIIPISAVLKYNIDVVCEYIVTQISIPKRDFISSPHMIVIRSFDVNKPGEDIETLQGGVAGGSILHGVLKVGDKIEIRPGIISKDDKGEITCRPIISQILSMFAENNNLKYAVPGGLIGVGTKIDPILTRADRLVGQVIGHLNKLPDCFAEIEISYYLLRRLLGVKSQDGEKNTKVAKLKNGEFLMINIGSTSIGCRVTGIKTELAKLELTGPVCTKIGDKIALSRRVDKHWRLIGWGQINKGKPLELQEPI
UniProt Q8IJT9: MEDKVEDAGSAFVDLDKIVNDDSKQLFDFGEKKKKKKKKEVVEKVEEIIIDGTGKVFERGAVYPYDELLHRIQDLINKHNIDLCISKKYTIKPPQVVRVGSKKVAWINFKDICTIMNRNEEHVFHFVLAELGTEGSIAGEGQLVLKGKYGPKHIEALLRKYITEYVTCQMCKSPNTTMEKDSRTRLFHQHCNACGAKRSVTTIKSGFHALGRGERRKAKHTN

Biological target: His-tagged PfeIF2γ recombinant protein (Plasmodium falciparum) (UniProt Q8ILY9)
Assay: co-IP; Xenopus oocytes micro-injected with cRNA of the HA-tagged protein and then with the His-tagged recombinant protein; immunoprecipitation with anti-His or anti-HA, immunoblots with anti-His or anti-HA; only the target purified

binding: binds
Substance: HA-PfeIF2β expressed in Xenopus oocytes from micro-injected cRNA (from UniProt Q8IJT9)

Results are given in words; binding and its absence hold for the method and conditions named. In cells and extracts the contact can be indirect. Binding can be weak; no strength is given.
